# The supplement of paper PMC10689618
# Counter-ions that a name gives are not always drawn. This is one part of the list. Single values are uncertain, as repeats are few or missing.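 Primary human fetal astrocytes engulfed labelled rat cortical synaptosomes, measured as a red/green ratio corrected for calcein live-cell signal and scaled to the plate median. Toxicity meant calcein falling over 30%; decreased phagocytosis meant below 70% of median above 5 µM.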
# Experiments:
# [1] = test system: Human fetal astrocytes; assay: loss of total cells relative to no-compound high-control median (toxicity); higher = more toxic (fewer cells); settings: 24 h
# [2] = test system: Human fetal astrocytes; assay: synaptosome phagocytosis (pHrodo/calcein intensity ratio) relative to plate median of data wells; higher = more phagocytosis; settings: 24 h
Compound,loss of total cells ([1]; 1.39 µM) [%],loss of total cells ([1]; 2.78 µM) [%],loss of total cells ([1]; 5.56 µM) [%],loss of total cells ([1]; 11.11 µM) [%],loss of total cells ([1]; 22.22 µM) [%],synaptosome phagocytosis ([2]; 1.39 µM) [%],synaptosome phagocytosis ([2]; 2.78 µM) [%],synaptosome phagocytosis ([2]; 5.56 µM) [%],synaptosome phagocytosis ([2]; 11.11 µM) [%],synaptosome phagocytosis ([2]; 22.22 µM) [%]
CN(C)CCCCSC(=N)N,-30.7,-32,-33.1,-14.2,-24.7,100,119,92.4,90.8,93.9
COC1(C2=NCCN2)COc2ccccc2O1 (stereo not given),-3.4,-7.5,7.3,-12.6,-6.6,81.3,102,96.3,105,72.5
CNC(=O)[C@H]1O[C@@H](n2cnc3c(NCc4ccc(N)cc4)ncnc32)[C@H](O)[C@@H]1O,-18.7,-15.3,-30.9,-4.9,-1.9,89.9,83.9,102,96.5,115
CNCCC(Oc1ccccc1OC)c1ccccc1 (stereo not given) [Nisoxetine hydrochloride],-18.5,-12.2,1.4,18.1,17.8,106,76.8,112,94,120
COCc1nc2c([nH]1)c(=O)n(C)c(=O)n2CC(C)C [8-Methoxymethyl-3-isobutyl-1-methylxanthine],-19.4,17.6,-6.1,19,2.8,122,128,128,126,99.5
CC(N)=NCCCC[C@H](N)C(=O)O [L-N6-(1-Iminoethyl)lysine hydrochloride],-3.3,2.3,18.3,21.9,31.8,108,123,103,109,132
N#C/C(=C\c1ccc(O)c(O)c1)C(=O)Nc1ccccc1 [Tyrphostin AG 494],-23.3,-11.7,-5.1,3.4,-4.1,113,101,103,124,101
COc1cccc2c1[C@@H]1CN(CCCCn3c(=O)[nH]c4c(sc5ncc(-c6ccccc6)nc54)c3=O)C[C@@H]1CO2 [Fiduxosin hydrochloride],-4.6,-13.7,-3.3,-2.2,0.8,87.4,86.9,114,104,137
COc1cccc(OC)c1OCCNCC1COc2ccccc2O1 (stereo not given) [WB-4101 hydrochloride],-8.8,-17.1,-6.6,-9.4,1.6,117,81.1,86.3,63.5,92.1
CC[N+](CC)(CC)CCOc1ccc(/C=C/c2ccccc2)cc1,-10,2.3,10.8,32.4,37.4,97.2,118,89.7,89.1,56.7
COC(=O)[C@@H]1[C@H]2C[C@H]3c4[nH]c5ccccc5c4CCN3C[C@@H]2CC[C@@H]1O [Yohimbine hydrochloride],-18.3,-24.9,4.5,-20.3,-30.5,87.6,104,71.7,102,116
COc1cc2c(CCNC(C)=O)c[nH]c2cc1Cl [6-Chloromelatonin],-8.4,-9.6,-3.2,-7.6,-4.9,85.5,94.6,104,102,110
O=C1NC(c2cccc([N+](=O)[O-])c2)=CCN1c1ccccc1O [Icilin],-15.5,2.6,-6.6,-4.9,0,74.3,115,105,124,112
CC(C)(C)NC[C@H](O)COc1nsnc1N1CCOCC1 [S(-)-Timolol maleate],-32.6,-24.3,-11.8,-13.4,-37,97,87.5,94.4,98.4,91.8
C#CCN1C(C)=C(C(=O)OC)C(c2cccc([N+](=O)[O-])c2)C(C(=O)OCC)=C1C (stereo not given),-3.3,10.4,8.9,-7.6,26.2,126,80.3,117,116,83.5
CCCOc1ccccc1-c1nc2[nH]nnc2c(=O)[nH]1 [Zaprinast],-5.9,-3.9,11.8,-4.2,-14,118,94.6,120,119,117
COc1cc(C(=O)OCCCN2CCCN(CCCOC(=O)c3cc(OC)c(OC)c(OC)c3)CC2)cc(OC)c1OC [Dilazep hydrochloride],9.6,-14.5,4.1,-2.2,10.4,103,98.3,108,99.9,109
CC(=O)N[C@@H](Cc1c[nH]c2ccccc12)C(=O)OCc1cc(C(F)(F)F)cc(C(F)(F)F)c1,-24.6,-13.2,4.1,-19.3,1.9,71.3,114,118,89.6,88.6
"CN(C)CCC(c1ccc(Cl)cc1)c1ccccn1 (single isomer, unassigned; (+)) [(+)-Chlorpheniramine maleate]",-12.1,-16.5,-12.4,-6.7,1.1,102,109,84.2,101,124
C[C@@H]1C(=O)NC2=Nc3cccc(Cl)c3CN21 [Quazinone],-7.1,-9.9,-4.5,-5,-24.7,97.7,75.6,93.3,73.6,60.5

# Record cards, as listed above. Order of values: loss of total cells ([1]; 1.39 µM) [%] | loss of total cells ([1]; 2.78 µM) [%] | loss of total cells ([1]; 5.56 µM) [%] | loss of total cells ([1]; 11.11 µM) [%] | loss of total cells ([1]; 22.22 µM) [%] | synaptosome phagocytosis ([2]; 1.39 µM) [%] | synaptosome phagocytosis ([2]; 2.78 µM) [%] | synaptosome phagocytosis ([2]; 5.56 µM) [%] | synaptosome phagocytosis ([2]; 11.11 µM) [%] | synaptosome phagocytosis ([2]; 22.22 µM) [%]
# `CC(N)=NCCCC[C@H](N)C(=O)O` [L-N6-(1-Iminoethyl)lysine hydrochloride] in the list: -3.3 | 2.3 | 18.3 | 21.9 | 31.8 | 108 | 123 | 103 | 109 | 132
# `COCc1nc2c([nH]1)c(=O)n(C)c(=O)n2CC(C)C` [8-Methoxymethyl-3-isobutyl-1-methylxanthine] in the list: -19.4 | 17.6 | -6.1 | 19 | 2.8 | 122 | 128 | 128 | 126 | 99.5

# Remaining list, next part

Compound,loss of total cells ([1]; 1.39 µM) [%],loss of total cells ([1]; 2.78 µM) [%],loss of total cells ([1]; 5.56 µM) [%],loss of total cells ([1]; 11.11 µM) [%],loss of total cells ([1]; 22.22 µM) [%],synaptosome phagocytosis ([2]; 1.39 µM) [%],synaptosome phagocytosis ([2]; 2.78 µM) [%],synaptosome phagocytosis ([2]; 5.56 µM) [%],synaptosome phagocytosis ([2]; 11.11 µM) [%],synaptosome phagocytosis ([2]; 22.22 µM) [%]
"Nc1ncnc2c1ncn2[C@@H]1O[C@H](COP(=O)(O)CP(=O)(O)OP(=O)(O)O)[C@H](O)C1O (stereo partly drawn) [alpha,beta-Methylene adenosine 5'-triphosphate dilithium]",-18.5,17.6,9.9,1.9,2.8,109,74.7,120,104,125
O=C(O)CP(=O)(O)O [Phosphonoacetic acid],-14.6,-30.2,-5.6,4.2,-14,113,110,116,96.9,91.3
CCCCCCCCCCCCCCCCCC(=O)OC(CC(=O)O)C[N+](C)(C)C (racemic) [DL-Stearoylcarnitine chloride],2.8,-6.3,-9,-11.9,-6.6,110,99.5,92,87,84.7
CN1CCN(c2nc3cc(C(F)(F)F)ccc3n3cccc23)CC1,-6.3,-22.2,-8.2,-7.6,13.6,108,94.8,97.9,65.9,70.4
Nc1nc(Cl)nc2c1ncn2[C@@H]1O[C@H](COP(=O)(O)OP(=O)(O)OP(=O)(O)O)[C@H](O)C1O (stereo not given in full) [2-Chloroadenosine triphosphate tetrasodium],-12.1,-14.5,8.2,-31.8,11.2,93,91.6,111,105,113
COC(=O)c1c(-c2cc(OC)c(OC)c(OC)c2)c2ccnc(OCc3ncccn3)c2c(=O)n1Cc1ccnc(C)c1,-28.3,-16.5,2.2,18.8,-1.6,112,130,116,128,93.9
N=C(N)c1ccc(OCCCCCOc2ccc(C(=N)N)cc2)cc1 [Pentamidine isethionate],-11.8,7.7,9.9,10.5,19.6,107,128,89.2,111,96.5
COc1cccc(NC(=O)/C=C/c2ccc(Cl)cc2)c1,-14,-20.1,-16.9,-6.5,-0.8,108,94,123,107,96.6
C=Cc1c(C)c2cc3[nH]c(cc4nc(cc5nc(cc1[nH]2)C(C)=C5CCC(=O)O)C(CCC(=O)O)=C4C)c(C)c3C=C [Protoporphyrin IX disodium],0.3,-21.3,10.7,5.7,1.6,114,102,115,69.8,92.2
NCC(O)c1ccc(O)c(O)c1 (racemic) [(±)-Norepinephrine (+)bitartrate],-1.1,-12,16.1,7.6,13.9,211,95.1,108,105,82.4
C#CC(N)CCC(=O)O (stereo not given) [gamma-Acetylinic GABA],-20.2,-11.1,0.5,-8.5,3.4,112,95.7,90.7,91.3,94.7
CCN1/C(=C/C(C)=O)Sc2ccc(OC)cc21,7.1,12.2,18.3,1,13.1,86.4,103,93.5,114,134
CCCCCCCCCCCCCCCC(=O)NCCO [Palmitoylethanolamide],3.3,-5.9,16.4,8.6,14,122,97.5,100,136,124
CNC(=N)NCCC[C@H](N)C(=O)O [NG-Monomethyl-L-arginine acetate],-12.8,-20.4,-6.1,1.9,-6.5,89,100,118,100,132
"FC(F)(F)c1cc(COC2CCCNC2c2ccccc2)cc(C(F)(F)F)c1 [L-733,060 hydrochloride]",-17.5,-14,18.3,18.1,38.3,105,114,122,76.7,70
CC(C)[C@H]1c2ccc(F)cc2CC[C@@]1(CCN(C)CCCc1nc2ccccc2[nH]1)OC(=O)C1CC1,5.2,8.6,21.1,59,97.2,123,78.8,58.2,25.4,0
O=c1c(O)c(-c2ccc(O)c(O)c2)oc2cc(O)cc(O)c12 [Quercetin dihydrate],-23.3,-11.7,-4.5,-9.6,-9.1,93.3,105,83.7,89.3,71.2
CN1[C@@H]2CC[C@H]1C[C@@H](OC(c1ccccc1)c1ccccc1)C2 [Benztropine mesylate],-20.6,-16.2,-23.5,-13.9,-8.6,113,123,105,104,87.1
OC[C@H]1O[C@@H](c2nc3cc(Cl)c(Cl)cc3[nH]2)[C@H](O)[C@@H]1O [D-ribofuranosylbenzimidazole],2.1,-14.5,-9.9,-13,-10.4,88.8,118,71.9,84.2,47.4
